Assay results: article PMC5192219
These are yes or no findings as the source states them, for the method shown. In cells and extracts the contact can be indirect. Some entries that bind do so weakly or less than the wild type. For part of these data: Where a sequence is shown, tags or fusion partners need not be part of it. One block for each molecule: values may come before it.

Amino acid sequences for entries named in this document (tags omitted).
UniProt Q15672: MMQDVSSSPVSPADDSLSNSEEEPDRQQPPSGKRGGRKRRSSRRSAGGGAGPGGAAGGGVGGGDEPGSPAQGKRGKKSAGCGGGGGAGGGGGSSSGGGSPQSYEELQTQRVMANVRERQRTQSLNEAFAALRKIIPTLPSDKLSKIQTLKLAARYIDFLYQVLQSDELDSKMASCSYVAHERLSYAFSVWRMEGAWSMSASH
UniProt O95863: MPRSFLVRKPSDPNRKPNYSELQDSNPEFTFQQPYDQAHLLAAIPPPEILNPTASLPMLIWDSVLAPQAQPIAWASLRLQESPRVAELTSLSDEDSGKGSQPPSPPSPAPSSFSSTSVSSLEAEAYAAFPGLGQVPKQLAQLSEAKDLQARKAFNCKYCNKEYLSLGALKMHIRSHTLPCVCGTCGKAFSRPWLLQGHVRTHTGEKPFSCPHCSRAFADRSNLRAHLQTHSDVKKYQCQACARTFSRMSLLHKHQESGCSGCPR
UniProt Q9UER7: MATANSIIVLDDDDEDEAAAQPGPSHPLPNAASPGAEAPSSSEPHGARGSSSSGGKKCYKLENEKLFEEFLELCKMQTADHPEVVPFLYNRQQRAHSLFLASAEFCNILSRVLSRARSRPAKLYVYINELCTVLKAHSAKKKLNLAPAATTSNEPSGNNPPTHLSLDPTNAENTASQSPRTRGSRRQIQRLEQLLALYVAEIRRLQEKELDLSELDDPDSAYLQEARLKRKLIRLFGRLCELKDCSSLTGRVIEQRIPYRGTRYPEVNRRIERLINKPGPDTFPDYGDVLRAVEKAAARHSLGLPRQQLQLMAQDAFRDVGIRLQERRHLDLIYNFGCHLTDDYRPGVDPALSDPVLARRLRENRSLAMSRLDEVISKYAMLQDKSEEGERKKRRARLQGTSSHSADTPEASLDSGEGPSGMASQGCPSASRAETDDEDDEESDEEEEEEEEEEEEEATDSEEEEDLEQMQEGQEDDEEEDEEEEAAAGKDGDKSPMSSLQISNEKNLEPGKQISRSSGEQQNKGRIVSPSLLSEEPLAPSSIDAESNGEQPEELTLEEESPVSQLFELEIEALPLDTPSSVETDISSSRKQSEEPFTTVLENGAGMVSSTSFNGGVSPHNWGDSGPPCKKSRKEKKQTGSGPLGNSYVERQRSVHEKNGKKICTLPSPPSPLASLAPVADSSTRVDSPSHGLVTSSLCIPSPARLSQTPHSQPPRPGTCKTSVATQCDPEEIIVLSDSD
UniProt Q13547: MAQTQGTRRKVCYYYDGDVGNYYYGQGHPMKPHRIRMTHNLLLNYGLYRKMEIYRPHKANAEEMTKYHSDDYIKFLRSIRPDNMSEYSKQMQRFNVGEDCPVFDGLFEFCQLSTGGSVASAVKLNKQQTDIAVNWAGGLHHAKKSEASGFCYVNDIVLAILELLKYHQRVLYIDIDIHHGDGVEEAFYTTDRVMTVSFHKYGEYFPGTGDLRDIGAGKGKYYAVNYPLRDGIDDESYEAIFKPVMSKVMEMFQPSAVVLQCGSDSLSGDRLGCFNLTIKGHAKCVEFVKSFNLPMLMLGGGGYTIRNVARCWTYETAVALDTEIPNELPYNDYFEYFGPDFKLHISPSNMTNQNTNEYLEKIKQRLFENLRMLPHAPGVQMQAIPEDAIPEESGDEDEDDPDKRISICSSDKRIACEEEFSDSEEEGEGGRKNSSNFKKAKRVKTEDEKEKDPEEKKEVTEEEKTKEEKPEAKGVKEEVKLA

Experiments:
[1] = biological target: Twist (UniProt Q15672); experiment: co-IP; Supplementary Fig. 13; cells and constructs not told
[2] = biological target: Snail (UniProt O95863); experiment: as above
[3] = biological target: T1, GST-Slug (UniProt O43623); experiment: pull-down; in vitro GST pull-down (Supplementary Fig. 3b, 5b); method not given
T1 sequence: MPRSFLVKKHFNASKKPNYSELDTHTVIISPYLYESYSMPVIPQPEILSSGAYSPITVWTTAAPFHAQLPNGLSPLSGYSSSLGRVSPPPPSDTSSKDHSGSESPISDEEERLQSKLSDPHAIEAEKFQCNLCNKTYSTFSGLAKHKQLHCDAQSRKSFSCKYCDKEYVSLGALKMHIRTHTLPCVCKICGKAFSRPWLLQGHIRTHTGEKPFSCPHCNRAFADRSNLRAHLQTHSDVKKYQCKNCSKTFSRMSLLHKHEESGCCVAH

[4] = biological target: T2, Slug, endogenous (human (endogenous in CL1-5)) (UniProt O43623); experiment: co-IP; endogenous proteins; CL1-5 cells treated with MG132 (10 uM) for 5 h; lysates immunoprecipitated with anti-Daxx or anti-Slug antibodies (rabbit or goat IgG as controls), immunoblotted
T2 sequence: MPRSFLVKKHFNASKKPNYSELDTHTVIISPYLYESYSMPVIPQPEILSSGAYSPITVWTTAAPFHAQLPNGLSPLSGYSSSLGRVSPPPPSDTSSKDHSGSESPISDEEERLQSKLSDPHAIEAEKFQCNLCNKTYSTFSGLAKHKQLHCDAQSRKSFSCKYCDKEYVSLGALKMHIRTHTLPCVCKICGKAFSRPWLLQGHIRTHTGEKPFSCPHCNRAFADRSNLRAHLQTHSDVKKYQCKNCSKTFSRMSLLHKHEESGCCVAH

[5] = biological target: T3, HA-Slug (UniProt O43623); experiment: co-IP; H1299 cells co-transfected with the indicated plasmids for 30 h; lysates precipitated with anti-HA (Fig. 3d) or anti-Flag (Fig. 3e), immunoblotted
T3 sequence: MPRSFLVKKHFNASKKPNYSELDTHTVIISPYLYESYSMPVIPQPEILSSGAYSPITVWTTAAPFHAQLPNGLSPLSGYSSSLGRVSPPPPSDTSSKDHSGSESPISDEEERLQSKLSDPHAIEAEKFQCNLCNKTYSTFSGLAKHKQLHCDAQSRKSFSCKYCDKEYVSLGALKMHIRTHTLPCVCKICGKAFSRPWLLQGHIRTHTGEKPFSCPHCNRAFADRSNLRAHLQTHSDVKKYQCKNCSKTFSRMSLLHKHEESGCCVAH

[6] = biological target: Flag-Daxx (UniProt Q9UER7); experiment: as above
[7] = biological target: death domain-associated protein (Daxx), endogenous (human (endogenous in CL1-5)) (UniProt Q9UER7); experiment: co-IP; endogenous proteins; CL1-5 cells treated with MG132 (10 uM) for 5 h; lysates immunoprecipitated with anti-Daxx or anti-Slug antibodies (rabbit or goat IgG as controls), immunoblotted
[8] = biological target: Flag-Daxx (UniProt Q9UER7); experiment: co-IP; H1299 cells co-transfected 24 h with tagged Daxx and Slug plasmids, MG132 (10 uM) 5 h; IP lysis buffer 20 mM Tris pH 7.5, 100 mM NaCl, 1% Nonidet P-40; precipitated with anti-HA (Fig. 3a) or anti-Flag M2 (Fig. 3b) overnight at 4 C, protein G agarose
[9] = biological target: HA-Daxx (UniProt Q9UER7); experiment: as above

- binding [1]: binds
- binding [2]: binds
Molecule: HA-Daxx (from UniProt Q9UER7 1-740)

- binding [5]: binds
- binding [6]: binds
Molecule: histone deacetylase 1 (HDAC1) (from UniProt Q13547 1-482) (enzyme)

- binding [8]: binds
B2: HA-Slug (protein, UniProt O43623 1-268)
chain: MPRSFLVKKHFNASKKPNYSELDTHTVIISPYLYESYSMPVIPQPEILSSGAYSPITVWTTAAPFHAQLPNGLSPLSGYSSSLGRVSPPPPSDTSSKDHSGSESPISDEEERLQSKLSDPHAIEAEKFQCNLCNKTYSTFSGLAKHKQLHCDAQSRKSFSCKYCDKEYVSLGALKMHIRTHTLPCVCKICGKAFSRPWLLQGHIRTHTGEKPFSCPHCNRAFADRSNLRAHLQTHSDVKKYQCKNCSKTFSRMSLLHKHEESGCCVAH

- binding [9]: binds
B3: Flag-Slug (protein, UniProt O43623 1-268)
chain: MPRSFLVKKHFNASKKPNYSELDTHTVIISPYLYESYSMPVIPQPEILSSGAYSPITVWTTAAPFHAQLPNGLSPLSGYSSSLGRVSPPPPSDTSSKDHSGSESPISDEEERLQSKLSDPHAIEAEKFQCNLCNKTYSTFSGLAKHKQLHCDAQSRKSFSCKYCDKEYVSLGALKMHIRTHTLPCVCKICGKAFSRPWLLQGHIRTHTGEKPFSCPHCNRAFADRSNLRAHLQTHSDVKKYQCKNCSKTFSRMSLLHKHEESGCCVAH

Second part, the molecule before the results:

Molecule: HA-Daxx, in vitro translated (from UniProt Q9UER7 1-740)
- binding [3]: binds

Molecule: death domain-associated protein (Daxx), endogenous (from UniProt Q9UER7 1-740)
- binding [4]: binds

B1: Slug, endogenous (protein, UniProt O43623 1-268)
chain: MPRSFLVKKHFNASKKPNYSELDTHTVIISPYLYESYSMPVIPQPEILSSGAYSPITVWTTAAPFHAQLPNGLSPLSGYSSSLGRVSPPPPSDTSSKDHSGSESPISDEEERLQSKLSDPHAIEAEKFQCNLCNKTYSTFSGLAKHKQLHCDAQSRKSFSCKYCDKEYVSLGALKMHIRTHTLPCVCKICGKAFSRPWLLQGHIRTHTGEKPFSCPHCNRAFADRSNLRAHLQTHSDVKKYQCKNCSKTFSRMSLLHKHEESGCCVAH
- binding [7]: binds
